test system: Pfa1 cells; assay: Cellular toxicity, same assay as Example B.4 without TAM (Example B.5); assay type: cell-based, mouse; conditions: TC50 divided by IC50 from Example B.4
Excerpt: Cellular Toxicity of Compounds of the Invention
An estimate of the toxicity for compounds of the invention was obtained by using the same assay as described in Example B.4, but without the addition of TAM. […] Such TC50 values obtained for certain compounds disclosed herein, together with an approximate therapeutic window (estimated by dividing each TC50 by the corresponding IC50 determined from example B.4) are shown in Table 3.

SMILES | Therapeutic Window (approx.. fold) [fold]
Clc1ccccc1CNC1=Nc2ccccc2NC12CCCCC2 [C-1] | >100
Clc1cccc(CNC2=Nc3ccccc3NC23CCCCC3)c1 [C-2] | >100
Clc1ccc(CNC2=Nc3ccccc3NC23CCCCC3)cc1 [C-3] | >200
Fc1cccc(CNC2=Nc3ccccc3NC23CCCCC3)c1 [C-5] | >50
Cc1cccc(CNC2=Nc3ccccc3NC23CCCCC3)c1 [C-11] | >20
FC(F)(F)c1cccc(CNC2=Nc3ccccc3NC23CCCCC3)c1 [C-23] | >100
COc1cccc(CNC2=Nc3ccccc3NC23CCCCC3)c1 [C-47] | >50
Fc1cc(Cl)ccc1CNC1=Nc2ccccc2NC12CCCCC2 [C-61] | >100
Clc1cccc(CCNC2=Nc3ccccc3NC23CCCCC3)c1 [C-79] | >10
CC1CCC2(CC1)Nc1ccccc1N=C2NCc1ccccc1Cl (stereo not shown) [C-91] | >100
CC(=O)NC1CCC2(CC1)Nc1ccccc1N=C2NCc1cccc(Cl)c1 (stereo not shown) [C-111] | >10
Fc1cc2c(cc1F)NC1(CCCCC1)C(NCc1cccc(Cl)c1)=N2 [C-137] | >100
Clc1ccccc1CNC1=Nc2ccccc2NC12CCCCCC2 [C-205] | >200
Clc1cccc(CNC2=Nc3ccccc3NC23CCCCCCC3)c1 [C-206] | >10
c1ccc(CNC2=Nc3ccccc3NC23CCCCCC3)cc1 [C-214] | >20
c1ccc(CNC2=Nc3ccccc3NC23CCCCC3)cc1 [C-215] | >50
Clc1cccc(CNC2=Nc3ccccc3NC23CCCCCC3)c1 [C-216] | >100
Clc1cc2c(cc1Cl)NC1(CCCCC1)C(NCc1ccccc1)=N2 [C-217] | >500
Cc1cc2c(cc1C)NC1(CCCCC1)C(NCc1ccccc1)=N2 [C-218] | >200
c1ccc(CNC2=Nc3ccccc3NC23CCCC3)cc1 [C-219] | >20
Clc1ccc(CNC2=Nc3ccccc3NC23CCCCCC3)cc1 [C-220] | >50
c1ccc(CCCNC2=Nc3ccccc3NC23CCCCC3)cc1 [C-221] | >10

SMILES | Therapeutic Window (approx.. fold) [fold]
Fc1cccc(F)c1CNC1=Nc2ccccc2NC12CCCCC2 [C-222] | >200
c1ccc(CNC2=Nc3cc4c(cc3NC23CCCCC3)OCCO4)cc1 [C-223] | >200
COc1cccc(CNC2=Nc3ccccc3NC23CCCCCC3)c1 [C-224] | >50
Cc1cc(C)cc(CNC2=Nc3ccccc3NC23CCCCC3)c1 [C-225] | >20
c1ccc(CCNC2=Nc3ccccc3NC23CCCCC3)cc1 [C-226] | >10
Clc1cccc(CNC2=Nc3cc4c(cc3NC23CCCCC3)OCCO4)c1 [C-227] | >1000
Clc1ccc(CNC2=Nc3ccccc3NC23CCCCC3)cc1Cl [C-228] | >500
c1ccc(C(CNC2=Nc3ccccc3NC23CCCCC3)c2ccccc2)cc1 [C-229] | >10
Clc1ccc(CNC2=Nc3ccccc3NC23CCCCC3)c(Cl)c1 [C-230] | >200
Fc1ccc(CNC2=Nc3ccccc3NC23CCCCC3)c(F)c1 [C-231] | >50
c1ccc(CCCCNC2=Nc3ccccc3NC23CCCCC3)cc1 [C-232] | >20
CC(CCc1ccccc1)NC1=Nc2ccccc2NC12CCCCC2 (stereo not shown) [C-233] | >20
Clc1cccc(CNC2=Nc3cc(Cl)c(Cl)cc3NC23CCCCCC3)c1 [C-234] | >100
Clc1cc2c(cc1Cl)NC1(CCCCCC1)C(NCc1ccccc1)=N2 [C-235] | >50
c1ccc(CNC2=Nc3ccccc3NC23CCCCCCC3)cc1 [C-236] | >50
Clc1cc2c(cc1Cl)NC1(CCCCCCC1)C(NCc1ccccc1)=N2 [C-237] | >50
Fc1cc2c(cc1F)NC1(CCCCC1)C(NCc1ccccc1)=N2 [C-238] | >100
Cc1cc2c(cc1C)NC1(CCCCCC1)C(NCc1ccccc1)=N2 [C-239] | >50
Fc1cccc(F)c1CNC1=Nc2cc(Cl)c(Cl)cc2NC12CCCCC2 [C-240] | >20
Cc1cc2c(cc1C)NC1(CCCCCCC1)C(NCc1ccccc1)=N2 [C-241] | >20
Fc1ccc(CNC2=Nc3ccccc3NC23CCCCCC3)c(F)c1 [C-242] | >10
Clc1cc2c(cc1Cl)NC1(CCCCCC1)C(NCc1ccccc1Cl)=N2 [C-243] | >20

SMILES | Therapeutic Window (approx.. fold) [fold]
CC(NC1=Nc2ccccc2NC12CCCCC2)c1ccccc1 (stereo not shown) [C-244] | >10
CC(=O)NC1CCC2(CC1)Nc1ccccc1N=C2NCc1ccccc1 (stereo not shown) [C-249] | >20
CC1CCC2(CC1)Nc1ccccc1N=C2NCc1ccccc1 (stereo not shown) [C-252] | >10
CC1(C)CCC2(CC1)Nc1ccccc1N=C2NCc1ccccc1 [C-253] | >10
FC(F)(F)c1cccc2c1N=C(NCc1ccccc1)C1(CCCCC1)N2 [C-254] | >20
Cc1cc2c(cc1C)NC1(CCCCCC1)C(NCc1cccc(Cl)c1)=N2 [C-255] | >50
FC1(F)Oc2cc3c(cc2O1)NC1(CCCCC1)C(NCc1ccccc1)=N3 [C-256] | >200
NC1CCC2(CC1)Nc1ccccc1N=C2NCc1ccccc1 (stereo not shown) [C-257] | >20
Clc1ccc2c(c1)N=C(NCc1ccccc1)C1(CCCCC1)N2 [C-258] | >50
FC(F)(F)c1ccc2c(c1)N=C(NCc1ccccc1)C1(CCCCC1)N2 [C-259] | >20
FC(F)(F)c1cccc(CNC2=Nc3cc(Cl)c(Cl)cc3NC23CCCCCC3)c1 [C-260] | >50
FC(F)(F)c1cccc(CNC2=Nc3ccccc3NC23CCCCCC3)c1 [C-261] | >20
Cc1cc(C)cc(CNC2=Nc3cc(Cl)c(Cl)cc3NC23CCCCCC3)c1 [C-262] | >20
Cc1cccc2c1NC1(CCCCC1)C(NCc1ccccc1)=N2 [C-263] | >20
FC(F)(F)c1cccc(CNC2=Nc3cc(Cl)c(Cl)cc3NC23CCCCC3)c1 [C-264] | >20
Fc1ccc(CNC2=Nc3cc(Cl)c(Cl)cc3NC23CCCCC3)c(F)c1 [C-265] | >50
Fc1cccc(F)c1CNC1=Nc2ccccc2NC12CCCCCC2 [C-266] | >20
Cc1cccc(CNC2=Nc3cc(Cl)c(Cl)cc3NC23CCCCCC3)c1 [C-267] | >50
Cc1cccc(CNC2=Nc3cc(Cl)c(Cl)cc3NC23CCCCC3)c1 [C-268] | >100
CC(C)(C)c1ccc(CNC2=Nc3ccccc3NC23CCCCC3)cc1 [C-269] | >20

Reference: US10280179B2, “Spiroquinoxaline derivatives as inhibitors of non-apoptotic regulated cell-death” (Helmholtz Zentrum Munchen—Deutches Forschungszentrum Fur …, priority 2013, dated 2019)
